Results: the supplement of paper PMC10849652
Some of the results follow.

Chains of the proteins cited; added tags and fusions are not shown. Lines headed by an entry give the natural chain unless they say otherwise; changes in a name come on top.
UniProt Q93083: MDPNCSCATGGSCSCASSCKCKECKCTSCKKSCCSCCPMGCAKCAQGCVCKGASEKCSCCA
UniProt Q6P444: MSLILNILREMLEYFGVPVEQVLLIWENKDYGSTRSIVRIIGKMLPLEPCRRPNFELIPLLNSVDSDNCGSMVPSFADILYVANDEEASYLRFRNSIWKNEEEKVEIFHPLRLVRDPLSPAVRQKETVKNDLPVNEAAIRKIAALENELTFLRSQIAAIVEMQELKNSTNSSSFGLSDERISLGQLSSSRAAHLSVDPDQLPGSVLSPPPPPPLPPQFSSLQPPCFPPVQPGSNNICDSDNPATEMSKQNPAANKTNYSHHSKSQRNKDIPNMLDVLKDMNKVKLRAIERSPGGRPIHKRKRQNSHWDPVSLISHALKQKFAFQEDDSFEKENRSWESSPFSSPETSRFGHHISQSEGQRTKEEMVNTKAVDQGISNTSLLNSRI
UniProt Q14872: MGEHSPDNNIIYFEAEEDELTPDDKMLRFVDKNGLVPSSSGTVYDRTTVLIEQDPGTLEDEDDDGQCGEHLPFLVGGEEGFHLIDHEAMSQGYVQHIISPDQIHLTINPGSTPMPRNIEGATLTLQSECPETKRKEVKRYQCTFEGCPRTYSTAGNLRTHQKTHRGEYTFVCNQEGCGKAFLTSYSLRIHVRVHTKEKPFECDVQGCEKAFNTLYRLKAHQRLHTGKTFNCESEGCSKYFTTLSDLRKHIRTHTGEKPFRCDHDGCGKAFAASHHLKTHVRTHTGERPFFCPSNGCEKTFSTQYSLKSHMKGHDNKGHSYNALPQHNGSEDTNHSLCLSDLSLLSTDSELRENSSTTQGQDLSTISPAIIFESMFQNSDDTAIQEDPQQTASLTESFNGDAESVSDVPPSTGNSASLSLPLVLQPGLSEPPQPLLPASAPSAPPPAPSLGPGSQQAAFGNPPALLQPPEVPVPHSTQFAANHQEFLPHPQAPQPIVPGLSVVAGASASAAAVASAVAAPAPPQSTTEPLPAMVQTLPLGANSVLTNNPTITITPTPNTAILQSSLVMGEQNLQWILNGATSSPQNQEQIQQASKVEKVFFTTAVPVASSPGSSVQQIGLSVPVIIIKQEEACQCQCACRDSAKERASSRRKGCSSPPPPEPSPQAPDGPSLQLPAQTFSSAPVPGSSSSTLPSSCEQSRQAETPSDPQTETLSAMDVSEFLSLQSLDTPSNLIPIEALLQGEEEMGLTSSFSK
UniProt Q49AM1: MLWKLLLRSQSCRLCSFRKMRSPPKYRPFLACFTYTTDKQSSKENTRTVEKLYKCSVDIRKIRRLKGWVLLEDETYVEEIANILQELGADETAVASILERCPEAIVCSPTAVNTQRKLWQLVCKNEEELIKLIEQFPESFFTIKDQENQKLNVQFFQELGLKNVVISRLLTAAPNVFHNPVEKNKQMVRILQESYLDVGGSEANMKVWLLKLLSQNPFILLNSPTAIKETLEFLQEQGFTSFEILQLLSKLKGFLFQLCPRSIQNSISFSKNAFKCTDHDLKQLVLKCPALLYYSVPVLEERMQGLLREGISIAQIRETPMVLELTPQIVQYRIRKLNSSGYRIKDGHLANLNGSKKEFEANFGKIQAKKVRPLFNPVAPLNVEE
UniProt P03928: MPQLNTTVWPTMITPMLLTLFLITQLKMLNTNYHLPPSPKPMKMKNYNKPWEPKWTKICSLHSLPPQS
UniProt O43312: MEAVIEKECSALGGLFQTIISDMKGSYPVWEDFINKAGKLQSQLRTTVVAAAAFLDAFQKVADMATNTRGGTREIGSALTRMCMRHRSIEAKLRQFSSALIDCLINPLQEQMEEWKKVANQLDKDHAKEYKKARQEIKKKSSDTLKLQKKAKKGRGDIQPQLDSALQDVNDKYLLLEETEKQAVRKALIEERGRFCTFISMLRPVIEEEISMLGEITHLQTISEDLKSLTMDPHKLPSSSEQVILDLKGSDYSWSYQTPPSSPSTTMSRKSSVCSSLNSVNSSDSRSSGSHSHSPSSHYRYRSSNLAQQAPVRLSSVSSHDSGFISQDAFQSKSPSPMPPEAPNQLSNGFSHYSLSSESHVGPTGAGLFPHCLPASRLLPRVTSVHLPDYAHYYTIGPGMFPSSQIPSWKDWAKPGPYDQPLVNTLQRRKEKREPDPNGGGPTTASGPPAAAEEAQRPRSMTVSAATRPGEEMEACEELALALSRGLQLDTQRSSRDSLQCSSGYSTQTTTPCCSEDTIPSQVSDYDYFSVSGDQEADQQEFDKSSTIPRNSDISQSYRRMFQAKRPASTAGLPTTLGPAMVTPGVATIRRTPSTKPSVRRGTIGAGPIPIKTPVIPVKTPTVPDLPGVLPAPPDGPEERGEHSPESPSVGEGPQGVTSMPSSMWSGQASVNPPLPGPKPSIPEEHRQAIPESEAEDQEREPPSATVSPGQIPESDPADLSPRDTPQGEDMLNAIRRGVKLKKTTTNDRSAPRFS
UniProt O75570: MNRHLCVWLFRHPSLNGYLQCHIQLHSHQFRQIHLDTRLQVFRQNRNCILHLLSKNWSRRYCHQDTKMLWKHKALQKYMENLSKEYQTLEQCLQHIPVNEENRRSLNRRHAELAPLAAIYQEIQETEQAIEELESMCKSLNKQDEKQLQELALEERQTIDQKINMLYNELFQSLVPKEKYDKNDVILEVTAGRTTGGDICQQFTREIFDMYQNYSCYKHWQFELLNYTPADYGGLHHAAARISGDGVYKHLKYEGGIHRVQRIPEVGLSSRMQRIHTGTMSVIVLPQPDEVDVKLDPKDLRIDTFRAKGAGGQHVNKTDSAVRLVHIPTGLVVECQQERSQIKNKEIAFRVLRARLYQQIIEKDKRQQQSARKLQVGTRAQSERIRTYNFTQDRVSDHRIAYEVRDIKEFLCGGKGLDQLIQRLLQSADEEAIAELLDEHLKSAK
UniProt Q96EF0: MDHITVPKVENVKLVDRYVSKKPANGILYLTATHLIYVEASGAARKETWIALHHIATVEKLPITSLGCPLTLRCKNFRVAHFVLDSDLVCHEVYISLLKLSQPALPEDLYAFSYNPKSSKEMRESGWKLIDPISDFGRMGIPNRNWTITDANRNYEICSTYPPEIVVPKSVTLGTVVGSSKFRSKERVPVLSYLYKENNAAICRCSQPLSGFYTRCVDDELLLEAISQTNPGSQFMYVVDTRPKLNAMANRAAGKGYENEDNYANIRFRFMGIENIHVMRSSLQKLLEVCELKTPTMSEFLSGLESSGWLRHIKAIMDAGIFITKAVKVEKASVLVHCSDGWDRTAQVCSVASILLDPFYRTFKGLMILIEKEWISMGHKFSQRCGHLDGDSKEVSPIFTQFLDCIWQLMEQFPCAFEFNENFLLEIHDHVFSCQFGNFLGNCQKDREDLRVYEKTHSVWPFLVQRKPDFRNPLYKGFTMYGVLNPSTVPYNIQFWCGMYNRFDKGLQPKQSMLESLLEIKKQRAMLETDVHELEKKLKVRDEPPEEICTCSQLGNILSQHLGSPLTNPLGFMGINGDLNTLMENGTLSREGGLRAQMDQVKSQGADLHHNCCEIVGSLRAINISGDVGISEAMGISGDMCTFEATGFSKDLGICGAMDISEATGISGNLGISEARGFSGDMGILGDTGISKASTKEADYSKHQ
UniProt Q6P1R3: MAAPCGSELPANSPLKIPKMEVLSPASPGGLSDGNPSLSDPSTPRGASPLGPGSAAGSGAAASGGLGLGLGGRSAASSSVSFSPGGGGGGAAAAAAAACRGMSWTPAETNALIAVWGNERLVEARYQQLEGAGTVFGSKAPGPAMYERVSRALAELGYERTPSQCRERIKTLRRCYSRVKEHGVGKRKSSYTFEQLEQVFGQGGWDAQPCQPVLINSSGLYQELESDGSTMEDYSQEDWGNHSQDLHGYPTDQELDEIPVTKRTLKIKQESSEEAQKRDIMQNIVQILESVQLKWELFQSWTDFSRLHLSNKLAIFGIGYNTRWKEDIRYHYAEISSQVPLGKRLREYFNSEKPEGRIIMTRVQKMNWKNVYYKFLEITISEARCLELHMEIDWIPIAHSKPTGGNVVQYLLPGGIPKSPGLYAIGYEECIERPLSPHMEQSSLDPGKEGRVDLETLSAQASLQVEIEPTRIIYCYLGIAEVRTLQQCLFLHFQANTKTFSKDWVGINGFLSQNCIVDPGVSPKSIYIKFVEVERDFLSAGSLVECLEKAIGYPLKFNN
UniProt P20585: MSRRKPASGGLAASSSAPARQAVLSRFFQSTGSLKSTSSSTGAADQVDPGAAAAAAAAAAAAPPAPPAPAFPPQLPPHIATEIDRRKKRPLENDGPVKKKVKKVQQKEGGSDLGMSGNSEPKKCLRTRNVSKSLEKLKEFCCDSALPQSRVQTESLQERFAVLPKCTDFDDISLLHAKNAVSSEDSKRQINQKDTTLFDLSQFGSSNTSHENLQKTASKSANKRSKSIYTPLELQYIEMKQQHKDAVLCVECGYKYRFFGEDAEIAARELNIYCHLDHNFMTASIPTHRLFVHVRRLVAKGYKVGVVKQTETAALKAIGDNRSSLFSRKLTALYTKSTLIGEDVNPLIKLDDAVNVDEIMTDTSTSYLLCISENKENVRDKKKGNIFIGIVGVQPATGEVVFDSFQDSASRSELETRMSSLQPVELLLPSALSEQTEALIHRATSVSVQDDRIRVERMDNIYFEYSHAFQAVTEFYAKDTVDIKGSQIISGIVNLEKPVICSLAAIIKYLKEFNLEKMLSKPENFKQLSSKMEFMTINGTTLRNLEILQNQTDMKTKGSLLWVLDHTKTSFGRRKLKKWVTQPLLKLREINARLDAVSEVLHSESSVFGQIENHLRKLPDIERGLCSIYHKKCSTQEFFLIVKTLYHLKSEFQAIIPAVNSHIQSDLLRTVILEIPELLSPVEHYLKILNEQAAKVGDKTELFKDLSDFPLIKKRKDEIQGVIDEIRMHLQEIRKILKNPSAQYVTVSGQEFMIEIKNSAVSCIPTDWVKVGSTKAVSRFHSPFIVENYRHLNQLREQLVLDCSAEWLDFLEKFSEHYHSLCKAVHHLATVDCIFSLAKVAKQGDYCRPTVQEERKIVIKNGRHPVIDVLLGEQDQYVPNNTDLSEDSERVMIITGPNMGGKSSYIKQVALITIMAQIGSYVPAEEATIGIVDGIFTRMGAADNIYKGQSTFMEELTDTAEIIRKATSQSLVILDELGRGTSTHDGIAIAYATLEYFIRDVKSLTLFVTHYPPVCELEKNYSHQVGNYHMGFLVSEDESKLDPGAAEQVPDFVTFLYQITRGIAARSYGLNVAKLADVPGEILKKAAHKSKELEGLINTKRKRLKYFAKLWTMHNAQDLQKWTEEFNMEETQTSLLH
UniProt O15457: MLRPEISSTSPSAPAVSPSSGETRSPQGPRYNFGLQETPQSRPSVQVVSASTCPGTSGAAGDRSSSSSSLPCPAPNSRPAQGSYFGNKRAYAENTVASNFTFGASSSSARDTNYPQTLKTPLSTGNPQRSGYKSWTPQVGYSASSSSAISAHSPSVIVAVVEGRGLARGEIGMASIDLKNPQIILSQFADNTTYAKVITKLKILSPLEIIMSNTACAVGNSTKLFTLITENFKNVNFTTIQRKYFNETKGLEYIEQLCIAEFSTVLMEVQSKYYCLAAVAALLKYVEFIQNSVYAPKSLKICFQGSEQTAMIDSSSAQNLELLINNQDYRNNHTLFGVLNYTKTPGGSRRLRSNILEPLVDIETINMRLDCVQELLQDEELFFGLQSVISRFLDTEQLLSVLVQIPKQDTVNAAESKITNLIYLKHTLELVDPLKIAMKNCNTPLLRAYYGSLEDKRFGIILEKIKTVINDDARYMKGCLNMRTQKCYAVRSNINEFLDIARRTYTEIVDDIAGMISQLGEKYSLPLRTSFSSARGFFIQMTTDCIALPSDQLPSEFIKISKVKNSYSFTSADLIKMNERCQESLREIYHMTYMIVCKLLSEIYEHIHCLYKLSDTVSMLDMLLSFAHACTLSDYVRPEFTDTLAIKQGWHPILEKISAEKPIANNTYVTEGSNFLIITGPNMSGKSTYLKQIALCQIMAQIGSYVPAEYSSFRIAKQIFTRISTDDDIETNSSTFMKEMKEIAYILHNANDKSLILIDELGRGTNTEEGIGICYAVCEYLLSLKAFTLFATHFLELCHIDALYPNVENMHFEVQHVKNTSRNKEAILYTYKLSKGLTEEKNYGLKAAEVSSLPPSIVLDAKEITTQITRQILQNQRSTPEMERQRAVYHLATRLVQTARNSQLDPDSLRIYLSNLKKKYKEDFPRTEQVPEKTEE
UniProt Q96HJ5: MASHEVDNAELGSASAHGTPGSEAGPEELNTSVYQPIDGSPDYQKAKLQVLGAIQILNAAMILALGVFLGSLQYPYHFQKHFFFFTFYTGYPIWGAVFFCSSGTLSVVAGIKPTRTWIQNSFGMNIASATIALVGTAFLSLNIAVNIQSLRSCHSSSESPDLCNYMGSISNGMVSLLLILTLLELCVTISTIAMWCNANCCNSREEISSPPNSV
UniProt P03897, whole entry, looked up: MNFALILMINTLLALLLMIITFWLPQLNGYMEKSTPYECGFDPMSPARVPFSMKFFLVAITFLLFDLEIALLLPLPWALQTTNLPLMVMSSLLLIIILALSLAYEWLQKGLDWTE

Legend:
Test in all cases: log2 fold change, soluble protein after heating vs DMSO (PISA); higher = thermal stabilisation; K562 lysate, 10 uM; active = over 0.2 and 3.5 SD of the protein, either way, in both replicates (recomputed)
[1] = compound: C1=CC=C(C=C1)[C@H](COC2=CC3=C(C=C2)NC(=O)N3)NC(=O)C4=CC=CN(C4=O)CC5=CC(=C(C=C5)F)F
In short: (§1)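 K562 pellets were dounce-homogenised in PBS pH 7.4 containing 1 mM MgCl2, and the crude extract, at 1 mg/mL protein, was exposed to 10 μM compound for 30 min. Aliquots were heated for 3 min across 48°C-58°C, pooled, brought to 0.5% NP-40 at 4°C and spun at 21,000xg for 90 min, with the supernatant taken as soluble protein. TMTpro 16plex LC-MS/MS with equalised channel sums quantified that protein. Values are log-two fold changes in thermal stability relative to solvent controls, taken from duplicates.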

[2] = compound: CC1=C(SC2=C1C(=N[C@H](C3=NN=C(N32)C)CC(=O)N)C4=CC=C(C=C4)Cl)C
In short: as §1

[3] = compound: c1ccc([C@@H]2C[C@H]2NC2CCNCC2)cc1
In short: as §1

[4] = compound: CC1=C2C(=CC=C1)N=C(N(C2=O)C3=CC=CC=C3C)CN4C=NC5=C(N=CN=C54)N
In short: as §1

[5] = compound: Cc1sc2c(c1C)C(c1ccc(Cl)cc1)=N[C@@H](CC(=O)OC(C)(C)C)c1nnc(C)n1-2
In short: as §1

Target | log2 fold change [1] | log2 fold change [2] | log2 fold change [3] | log2 fold change [4] | log2 fold change [5]
MT1L (UniProt Q93083) | inactive: 0.083 | inactive: 0.011 | inactive: -0.068 | – | –
MTMR4 (UniProt Q9NYA4) | – | – | inactive: -0.031 | inactive: -0.056 | inactive: 0.111
MUC19 (UniProt Q7Z5P9) | inactive: 0.339 | inactive: 0.181 | inactive: -0.004 | – | –
MTCH2 (UniProt Q9Y6C9) | inactive: 0.013 | inactive: 0.001 | inactive: -0.083 | inactive: -0.006 | inactive: -0.014
MTFR2 (UniProt Q6P444) | inactive: -0.025 | inactive: -0.041 | inactive: 0.14 | inactive: 0.002 | inactive: -0.043
MTURN (UniProt Q8N3F0) | – | – | – | – | inactive: 0.046
MRPL34 (UniProt Q9BQ48) | inactive: -0.003 | inactive: 0.055 | inactive: -0.023 | – | inactive: 0.107
MRPL30 isoform 2 (UniProt Q8TCC3) | inactive: 0.086 | inactive: -0.056 | inactive: 0.476 | – | inactive: -0.102
MRPS14 (UniProt O60783) | inactive: 0.025 | inactive: 0.067 | inactive: 0.119 | inactive: -0.049 | –
MSRA (UniProt Q9UJ68) | – | – | inactive: 0.022 | – | –
MTG1 (UniProt Q9BT17) | – | – | inactive: 0.008 | – | –
MSL3 (UniProt Q8N5Y2) | – | – | inactive: 0.142 | inactive: -0.002 | inactive: 0.189
MRRF (UniProt Q96E11) | inactive: -0.006 | inactive: -0.041 | inactive: 0.046 | inactive: 0.011 | inactive: 0.007
MTF1 (UniProt Q14872) | – | – | inactive: 0.122 | – | –
MTERF2 (UniProt Q49AM1) | – | – | – | – | inactive: -0.254
MT-ATP8 (UniProt P03928) | inactive: -0.057 | inactive: 0.052 | inactive: 0.104 | inactive: 0.082 | –
MSL2 (UniProt Q9HCI7) | – | – | – | inactive: 0.049 | –

Random excerpt: 2 entries already listed, in no set order.
Target | log2 fold change [1] | log2 fold change [2] | log2 fold change [3] | log2 fold change [4] | log2 fold change [5]
MSRA (UniProt Q9UJ68) | – | – | inactive: 0.022 | – | –
MTF1 (UniProt Q14872) | – | – | inactive: 0.122 | – | –

Continued.

Target | log2 fold change [1] | log2 fold change [2] | log2 fold change [3] | log2 fold change [4] | log2 fold change [5]
MT-CO3 (UniProt P00414) | – | – | inactive: -0.169 | inactive: 0.088 | inactive: 0.315
MTDH (UniProt Q86UE4) | inactive: 0.025 | inactive: 0.009 | inactive: -0.024 | inactive: -0.016 | inactive: -0.001
MTSS1 isoform 5 (UniProt O43312) | – | – | – | – | inactive: 0.161
MTRF1 isoform 2 (UniProt O75570) | – | – | inactive: -0.062 | – | –
MSH5 isoform 3 (UniProt O43196) | – | – | – | – | inactive: 0.069
MRPS15 (UniProt P82914) | inactive: -0.026 | inactive: 0.086 | inactive: -0.028 | – | inactive: -0.059
MRPS2 (UniProt Q9Y399) | – | – | inactive: 0.036 | inactive: 0.063 | inactive: 0.047
MTMR8 (UniProt Q96EF0) | inactive: 0.028 | inactive: 0.087 | – | – | inactive: 0.219
MSANTD2 (UniProt Q6P1R3) | – | – | inactive: 0.353 | inactive: -0.024 | inactive: 0.292
MSH3 (UniProt P20585) | inactive: 0.018 | inactive: 0.014 | inactive: 0.04 | inactive: 0.039 | inactive: -0.008
MSH4 (UniProt O15457) | – | – | inactive: 0.454 | inactive: 0.128 | –
MS4A3 (UniProt Q96HJ5) | – | – | – | inactive: 0.088 | –
MT-ND3 (UniProt P03897) | inactive: 0.078 | inactive: 0.137 | inactive: -0.075 | – | –
MTHFD2L (UniProt Q9H903) | inactive: 0.309 | inactive: -0.113 | inactive: 0.174 | – | –
MTFMT (UniProt Q96DP5) | – | – | inactive: 0.074 | – | inactive: 0.25
MRPL24 (UniProt Q96A35) | – | – | inactive: 0.083 | inactive: 0.054 | inactive: 0.067
